These are yes or no findings as the source states them, for the method shown. Binding seen in cells or lysates may run through a third protein. Some binding calls cover weakened binding; strength is not graded here.

Protein sequences, listed by entry. Tags and fused reporters are not part of them. Residues count along the entry.
UniProt P19491, residues 22-883: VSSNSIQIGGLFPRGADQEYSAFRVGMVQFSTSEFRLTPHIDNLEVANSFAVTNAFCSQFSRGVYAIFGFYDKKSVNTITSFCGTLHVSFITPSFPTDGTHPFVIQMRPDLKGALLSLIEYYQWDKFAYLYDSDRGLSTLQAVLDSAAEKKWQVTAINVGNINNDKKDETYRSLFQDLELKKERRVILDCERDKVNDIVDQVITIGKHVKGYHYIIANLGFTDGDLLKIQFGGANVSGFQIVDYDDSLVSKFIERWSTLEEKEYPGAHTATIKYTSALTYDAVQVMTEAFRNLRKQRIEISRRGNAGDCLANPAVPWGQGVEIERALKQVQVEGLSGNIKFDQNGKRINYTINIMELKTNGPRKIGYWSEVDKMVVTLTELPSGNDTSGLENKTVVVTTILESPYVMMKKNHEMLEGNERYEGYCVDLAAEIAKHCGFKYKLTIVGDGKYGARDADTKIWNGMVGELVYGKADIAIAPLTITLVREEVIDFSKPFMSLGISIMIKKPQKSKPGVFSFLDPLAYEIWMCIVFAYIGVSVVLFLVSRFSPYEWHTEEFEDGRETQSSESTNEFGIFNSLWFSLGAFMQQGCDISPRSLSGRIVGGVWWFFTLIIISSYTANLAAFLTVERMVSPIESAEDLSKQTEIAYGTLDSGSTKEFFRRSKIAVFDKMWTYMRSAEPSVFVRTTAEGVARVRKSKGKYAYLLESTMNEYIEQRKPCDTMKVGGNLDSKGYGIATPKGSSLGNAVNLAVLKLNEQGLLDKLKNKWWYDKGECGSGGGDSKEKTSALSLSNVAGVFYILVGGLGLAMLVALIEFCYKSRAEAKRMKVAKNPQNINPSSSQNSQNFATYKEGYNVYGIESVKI
UniProt P19492, residues 23-888: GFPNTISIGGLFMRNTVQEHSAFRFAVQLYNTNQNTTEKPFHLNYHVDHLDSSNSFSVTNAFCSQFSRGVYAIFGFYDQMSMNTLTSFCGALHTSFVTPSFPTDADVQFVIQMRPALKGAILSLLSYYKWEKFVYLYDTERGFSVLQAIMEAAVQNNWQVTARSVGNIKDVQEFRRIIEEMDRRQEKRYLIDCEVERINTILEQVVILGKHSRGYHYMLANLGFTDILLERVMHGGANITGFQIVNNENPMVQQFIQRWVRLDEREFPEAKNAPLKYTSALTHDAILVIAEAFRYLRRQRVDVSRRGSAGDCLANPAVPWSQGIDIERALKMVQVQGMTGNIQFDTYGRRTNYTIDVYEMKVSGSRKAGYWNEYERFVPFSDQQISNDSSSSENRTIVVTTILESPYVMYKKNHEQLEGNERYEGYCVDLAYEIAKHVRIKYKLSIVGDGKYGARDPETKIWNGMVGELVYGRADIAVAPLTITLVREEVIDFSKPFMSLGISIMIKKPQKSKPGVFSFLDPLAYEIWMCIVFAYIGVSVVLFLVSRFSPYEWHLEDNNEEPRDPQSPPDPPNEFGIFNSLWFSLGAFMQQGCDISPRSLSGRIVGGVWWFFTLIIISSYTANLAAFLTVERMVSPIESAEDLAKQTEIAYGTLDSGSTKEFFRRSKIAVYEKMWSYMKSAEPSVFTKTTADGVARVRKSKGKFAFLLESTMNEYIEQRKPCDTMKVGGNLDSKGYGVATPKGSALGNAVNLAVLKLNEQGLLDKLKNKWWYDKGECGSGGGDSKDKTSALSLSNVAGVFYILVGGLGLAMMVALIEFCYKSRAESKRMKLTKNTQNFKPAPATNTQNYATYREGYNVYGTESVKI

In the assay the target is GluA2 (rat (endogenous in dorsal spinal cord)) (UniProt P19491). Description: co-IP; protein extracts of rat dorsal spinal cord (L4-L6); rabbit anti-GluA2 antibody (or IgG) on protein G agarose beads, 4°C overnight; blots with mouse anti-GluA2 and mouse anti-GluA3; sham and SNL rats, intrathecal vehicle or 10 μg pregabalin, control or Gria3-expressing lentiviruses.

Turning to “GluA3 (from UniProt P19492 23-888) (receptor)”, the binding entry is reported as “binds”.

The values are drawn from paper PMC12721899.
